Experimental data published in PubChem BioAssay AID720504 (National Center for Advancing Translational Sciences (NCATS), 2013).
Out of some 360,000 compounds screened, about 10,000 (2.8%) were called active. Inconclusive means that the source gave no clear call. Such entries were picked first, then a sample of the others. Calls follow the shape of the dose curve; as a rule, active = well fitted inhibition curve with a large enough effect; inconclusive = small, poorly fitted or top-dose-only effect; inactive = flat fitted curve, though single readings scatter. Potencies beside an inconclusive call are fits to weak or partial responses and may not hold up.

Chains of the proteins cited; added tags and fusions are not shown.
UniProt P53350, whole entry, looked up: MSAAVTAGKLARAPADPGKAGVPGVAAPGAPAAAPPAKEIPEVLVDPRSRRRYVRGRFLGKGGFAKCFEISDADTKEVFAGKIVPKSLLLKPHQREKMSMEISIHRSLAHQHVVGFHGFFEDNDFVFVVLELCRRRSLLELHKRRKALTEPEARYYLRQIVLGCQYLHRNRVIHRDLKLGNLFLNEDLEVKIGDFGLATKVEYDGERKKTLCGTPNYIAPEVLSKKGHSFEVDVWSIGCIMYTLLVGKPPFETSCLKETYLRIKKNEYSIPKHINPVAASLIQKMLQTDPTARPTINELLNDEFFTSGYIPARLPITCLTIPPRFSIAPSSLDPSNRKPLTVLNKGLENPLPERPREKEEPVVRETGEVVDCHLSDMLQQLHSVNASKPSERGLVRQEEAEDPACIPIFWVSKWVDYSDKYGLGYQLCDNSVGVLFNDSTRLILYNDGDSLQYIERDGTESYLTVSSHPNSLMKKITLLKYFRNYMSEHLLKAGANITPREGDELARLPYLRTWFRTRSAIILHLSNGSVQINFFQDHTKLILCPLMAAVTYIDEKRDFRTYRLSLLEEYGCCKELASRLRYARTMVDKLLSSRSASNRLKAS

Target: Serine/threonine-protein kinase PLK1 (Homo sapiens) (UniProt P53350)
Assay: qHTS for Inhibitors of PLK1-PDB (polo-like kinase 1 - polo-box domain): Primary Screen; also: nearly all actives have a fitted effect of over 65% in size; as to max response, negative = inhibition: series mostly up to about 57 µM
Conditions: Plk1 PBD binding of FITC phosphopeptide, fluorescence polarization
% is scaled to controls: 0 for no effect and ±100 for the full control effect; potency is read from the fitted curve at half-maximal effect.

Row | Structure (SMILES) | Potency | max response, negative = inhibition
1 | CNc1ncnc(Sc2nc(N)nc3nc[nH]c23)c1[N+](=O)[O-] | inconclusive: 23.8 µM [inhibitor, partial curve] | –
2 | CC(=O)c1ccc(S(=O)(=O)Nc2cccc(-n3cnnn3)c2)cc1 | inconclusive: 23.8 µM [inhibitor, single point] | –
3 | COc1ccc(Br)cc1/C=C(\C(=O)O)c1ccc(S(=O)(=O)N2CCCC2)s1 | inconclusive: 37.7 µM [inhibitor, single point] | –
4 | Cc1cc2oc(C(=O)NC3CCS(=O)(=O)C3)c(C)c2cc1C (centres undefined) | – | inactive: -3.72%
5 | CCn1c(C)c(C(C)=O)c(N2CCN(c3ccc(OC)cc3)CC2)nc1=S | inconclusive: 8.44 µM [inhibitor, partial curve] | –
6 | CCC(C)Sc1ccc([C@H]2N[C@@](C)(C(=O)OC)[C@H]3C(=O)N(CC)C(=O)[C@@H]23)cc1 (some centres undefined) | – | inactive: 0.704%
7 | CCC(C)Nc1nc(-c2cccc(OC)c2O)nc2ccccc12 (centres undefined) | – | inactive: -10.3%
8 | O=C1Cc2ccccc2C(=O)N1OCc1ccc(Cl)cc1 | inconclusive: 23.8 µM [inhibitor, partial curve] | –
9 | O=C(O/N=C\c1ccc(N2CCCCC2)c([N+](=O)[O-])c1)c1c(F)cccc1F | – | inactive: -1.01%
10 | Cc1sc2nc(N)sc2c1C | inconclusive: 29.9 µM [inhibitor, partial curve] | –
11 | COc1cc(OC)nc(Nc2nc(C(N)CCc3ccccc3)cs2)n1 (centres undefined) | – | inactive: -9.61%
12 | Cn1cnnc1SCC(=O)c1cc2ccccc2oc1=O | inconclusive: 37.7 µM [inhibitor, single point] | –
13 | CC[C@@]1(c2ccccc2C)C(=O)N(C(=O)OC)N1C(=O)OC | active: 10.6 µM | –
14 | COc1ccc(CCNc2ccc(C(CC(N)=O)NC(=O)c3cc(C)cc(C)c3)cc2[N+](=O)[O-])cc1 (centres undefined) | inconclusive: 23.8 µM [inhibitor, single point] | –
15 | O=C(CSc1nncc(=O)[nH]1)Nc1cccc([N+](=O)[O-])c1 | active: 21.2 µM | –
16 | Cc1ccc2c(c1)C(N1CCCC1=O)CC(c1ccco1)N2 (centres undefined) | inconclusive: 23.8 µM [inhibitor, partial curve] | –
17 | C=C(C)C1CC=C(C)/C(=N/NC(=O)c2cccs2)C1 (centres undefined) | – | inconclusive: -30.9% [inhibitor]
18 | Cc1ccc2cc3cc(C(=O)N4CC(C)CC(C)C4)oc3nc2c1 (centres undefined) | active: 13.4 µM | –
19 | COCCSc1ccccc1C(=O)Nc1cc(C)on1 | inconclusive: 37.7 µM [inhibitor, single point] | –
20 | Nc1ccc(N2CCOCC2)c2nonc12 | – | inactive: -4.36%
21 | COCCn1c(SCC(=O)c2ccc3c(c2)OCCO3)nnc1-c1ccco1 | inconclusive: 16.8 µM [inhibitor, partial curve] | –
22 | c1cnc2c(SCc3ccc(-c4nnco4)cc3)cccc2c1 | inconclusive: 29.9 µM [inhibitor, partial curve] | –
23 | O=C1C=C(c2ccccc2)C[C@H](c2cccs2)[C@H]1n1nnc([N+](=O)[O-])n1 | inconclusive: 75.2 µM [inhibitor, partial curve] | –

Row | Structure (SMILES) | Potency | max response, negative = inhibition
24 | CC(C)=CCN1CCN(Cc2cc(F)ccc2-n2nc(C)cc2C)CC1CCO (centres undefined) | – | inactive: -4.39%
25 | COCCNC(=O)C(c1ccc(F)cc1)N(Cc1ccccc1)C(=O)CCC(=O)Nc1ccccn1 (centres undefined) | – | inactive: -3.74%
26 | O=C(O)CN(c1ccccc1[N+](=O)[O-])S(=O)(=O)c1ccccc1 | inconclusive: 26.7 µM [inhibitor, single point] | –
27 | NS(=O)(=O)c1ccc(NC(=S)Nc2ccc(S(=O)(=O)N3CCCC3)cc2)cc1 | inconclusive: 15 µM [inhibitor, partial curve] | –
28 | CN(C)CC1CCC/C(=C\c2ccc(OC(=O)c3ccc(Cl)cc3)cc2)C1=O (centres undefined) | inconclusive: 6.7 µM [inhibitor, partial curve] | –
29 | CCN1C(=O)[C@H]2[C@@H](c3ccc(-c4cccc(Cl)c4)c(OC)c3)N3CCC[C@@]3(C(=O)OC)[C@H]2C1=O | – | inactive: -10.1%
30 | CCSc1nnc(NC(=O)c2nc(S(=O)(=O)Cc3ccc(F)cc3)ncc2Cl)s1 | inconclusive: 29.9 µM [inhibitor, partial curve] | –
31 | CCCS(=O)(=O)N1CCN(C(=O)COc2ccc(OC)cc2)CC1 | inconclusive: 5.97 µM [inhibitor, single point] | –
32 | CCCCC(=O)NC(c1ccc(Cl)cc1Cl)c1ccc2cccnc2c1O (centres undefined) | active: 3.36 µM | –
33 | CCc1ccc(NC(=O)C(C)Sc2nc(-c3ccco3)c(C#N)c(=O)[nH]2)cc1 (centres undefined) | active: 23.8 µM | –
34 | CC1=C(/C=C/C(C)=C/C=C/C(C)=C/C(=O)O)C(C)(C)CCC1 | – | inconclusive: -34.9% [inhibitor]
35 | CC(=O)N1CCc2c(sc(NC(=O)CN3C(=O)CCC3=O)c2C(N)=O)C1 | inconclusive: 29.9 µM [inhibitor, partial curve] | –
36 | CC(=O)NC1CC2CCCC(C1)N2C(=O)Nc1cccc(C(C)=O)c1 (centres undefined) | – | inactive: -12.7%
37 | O=c1c([N+](=O)[O-])c(NCCN2CCCCCC2)c2ccccc2n1-c1ccccc1 | – | inconclusive: -24.7% [inhibitor]
38 | O=C(NNC(=S)Nc1ccc(F)c(Cl)c1)c1ccccc1Br | – | inconclusive: -31% [inhibitor]
39 | Cc1csc(SCC(=O)N(C)C2CCS(=O)(=O)C2)n1 (centres undefined) | – | inactive: 7.24%
40 | O=C(CCn1ccc2cc(S(=O)(=O)N3CCCC3)ccc21)NCc1ccccc1 | inconclusive: 29.9 µM [inhibitor, partial curve, poor fit] | –
41 | Cc1ccc(-n2[nH]c(C)c(/C=N/Nc3ccc([N+](=O)[O-])cc3[N+](=O)[O-])c2=O)cc1C | inconclusive: 21.2 µM [inhibitor, partial curve] | –
42 | Cc1ccc(S(=O)(=O)NN)c(C)c1N1CCCC1=O | – | inconclusive: -30.9% [inhibitor]
43 | N#Cc1c(N)sc2c1CCN(C(=O)OCc1ccccc1)C2 | active: 23.8 µM | –
44 | COC(=O)C(NC(C)=O)(Nc1nc2c(C)cc(C)cc2s1)C(F)(F)F (centres undefined) | inconclusive: 31.6 µM [inhibitor, partial curve] | –
45 | NC(=O)NC(CC(=O)NCCc1ccc(S(N)(=O)=O)cc1)c1ccc(Cl)cc1 (centres undefined) | active: 15 µM | –
46 | COC(=O)[C@@]1(Cc2ccc(F)cc2)[C@H]2c3cc(C(=O)N4CCCC4)n(CCc4ccccn4)c3C[C@H]2CN1C(=O)c1ccccc1 | active: 21.2 µM | –

Row | Structure (SMILES) | Potency | max response, negative = inhibition
47 | CC(C)c1ccc(OCC(=O)NNC(=S)NC(=O)C2CC2)cc1 | inconclusive: 29.9 µM [inhibitor, single point] | –
48 | CC(=O)c1c(C)[nH]c(C(=O)COC(=O)CCSc2ccccc2)c1C | inconclusive: 29.9 µM [inhibitor, partial curve] | –
49 | Cc1ccc(/C=N/NC(=O)CN2C(=O)CSc3ccccc32)o1 | – | inactive: -10.4%
50 | COc1ccc(S(=O)(=O)NNC(=O)C23CC4CC(CC(C4)C2)C3)cc1 | – | inactive: 0.69%
51 | Cc1nnc(NC(=O)COc2ccc3c(C)cc(=O)oc3c2)s1 | inconclusive: 23.8 µM [inhibitor, partial curve] | –
52 | COc1ccccc1C(CC(=O)c1ccccc1)CC(=O)c1ccccc1 | – | inactive: -5.3%
53 | CC(C)CCNC(=S)Nc1ccc([N+](=O)[O-])cc1 | inconclusive: 21.2 µM [inhibitor, partial curve] | –
54 | CSc1nc(Cl)c(Cc2ccc(OC(C)C)cc2)c(N(C)C)n1 | – | inactive: 3.89%
55 | C=CCc1c(O)nc(SCC(=O)c2ccccc2)[nH]c1=O | inconclusive: 29.9 µM [inhibitor, single point] | –
56 | OC[C@H](O)[C@H](O)[C@@H](O)[C@@H](O)[C@@H]1SC(c2ccccc2)=NN1c1ccccc1 | inconclusive: 23.8 µM [inhibitor, partial curve] | –
57 | O=C(Nc1ccc(NC(=O)c2ccco2)nc1)c1ccccn1 | – | inactive: -4.25%
58 | O=C(NCC(=O)N(Cc1cccs1)C(C(=O)NC1CCCCC1)c1ccncc1)c1ccco1 (centres undefined) | inconclusive: 29.9 µM [inhibitor, partial curve] | –
59 | O=c1[nH]ncn1-c1ccccc1C(F)(F)F | – | inactive: 1.99%
60 | Cc1ccc(S(=O)(=O)NCCC(=O)Nc2ccc(C)cc2C(=O)c2ccccc2)cc1 | active: 26.7 µM | –
61 | CCOc1cc(/C=N/NC(=O)c2ccc(-c3csc(Nc4ccc(C)cc4)n3)cc2)ccc1OCC(=O)O | inconclusive: 18.9 µM [inhibitor, partial curve, poor fit] | –
62 | COCC(=O)Nc1nc(-c2ccccc2)c(C)s1 | inconclusive: 26.7 µM [inhibitor, single point] | –
63 | COc1ccc(C)cc1NC(=O)c1nn(-c2ccccc2)cc1OC | inconclusive: 26.7 µM [inhibitor, partial curve] | –
64 | Nc1nc(SCC(=O)c2cc3ccccc3o2)n[nH]1 | inconclusive: 29.9 µM [inhibitor, partial curve] | –
65 | N#Cc1c(NC(=O)C2CC(c3ccccc3Cl)=NO2)sc2c1CCC2 (centres undefined) | inconclusive: 26.7 µM [inhibitor, partial curve] | –
66 | COc1ccccc1C(OC(=O)c1cccs1)C(=O)NCc1ccco1 (centres undefined) | – | inactive: -16.8%
67 | C#CCOCCOCCOCCNc1nc(N2CCN(C(=O)Cn3cc(CCCN=C(N)N)nn3)CC2)nc(N2CCN(C(=O)[C@H](CCCCN)n3cc(CCCC)nn3)CC2)n1 | – | inactive: 3.92%
68 | CC(=O)OCCNc1cc(Sc2nc3ccccc3[nH]2)c2nonc2c1[N+](=O)[O-] | active: 2.67 µM | –
69 | CCn1c(=O)c2ccccc2n2c(SCC(N)=O)nnc12 | – | inactive: 4.27%

An excerpt of these results, with tabs.
Row	Structure (SMILES)	Potency	max response, negative = inhibition
8	O=C1Cc2ccccc2C(=O)N1OCc1ccc(Cl)cc1	inconclusive: 23.8 µM [inhibitor, partial curve]	–
9	O=C(O/N=C\c1ccc(N2CCCCC2)c([N+](=O)[O-])c1)c1c(F)cccc1F	–	inactive: -1.01%
10	Cc1sc2nc(N)sc2c1C	inconclusive: 29.9 µM [inhibitor, partial curve]	–
